Tested on: atypical adenosine A2A receptors
Experiment: Displacement of [3H]CGS21680 binding in rat striatum in the presence of CSC (atypical sites)
Settings: Figure 3, 200 nmol/L CSC

| SMILES | Hill Slope |
| --- | --- |
| CCn1c(=O)c2c(nc(/C=C/c3ccc(OC)c(OC)c3)n2C)n(CC)c1=O [KW6002, (E)-1,3-diethyl-8-(3,4-dimethoxystyryl)-7-methyl-3,7-dihydro-1H-purine-2,6,dione] | -1.408 |
| CCCCc1nc(N)c2nc(-n3nccn3)n(C)c2n1 [ST1535, 2 butyl-9-methyl-8-(2H-1,2,3-triazol 2-yl)-9H-purin-6-xylamine] | -1.045 |
| Nc1nc(NCCc2ccc(O)cc2)nc2nc(-c3ccco3)nn12 [ZM241385] | -0.6052 |

Reference: PMC3059644 (Frontiers in Psychiatry, 2010)
